Source: PubChem BioAssay AID504808 (Drosophila RNAi Screening Center, 2011)

Screen: 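Genes whose loss lifts activity of an E2F-responsive reporter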 (primary screen)
System: Drosophila S2 cells
Reagents: long dsRNA against Drosophila genes
Measured: 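Firefly luciferase driven by E2F sites, normalised to Renilla luciferase on the same minimal promoter, measured by plate reader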
Scale: E2F firefly: higher = more E2F reporter activity; Renilla normaliser: higher = more normaliser reporter signal
Active means: 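Called active if the normalised E2F reporter went up by over 50%; the cutoff is arbitrary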
The deposit covers about 21,000 reagents; this is a random part of those that have a named target and a result. Of all reagents, 18 (0.084%) got an active call. 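Raw counts without plate normalisation, one of two replicates; the ratio scores behind the calls were not deposited.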 Reagents against one gene are numbered here. Reagent sequences are not shown. The record does not give: the amount of reagent, the time to read-out.

For CG15484 (GeneID 34682), what was measured?
E2F firefly, rep 1: 1.03e5; Renilla normaliser, rep 1: 4438; Outcome: inactive

With Ctl1 (GeneID 38523), what does the deposit list?
E2F firefly, rep 1: 96210; Renilla normaliser, rep 1: 4350; Outcome: inactive

What did the screen give for Lhr (GeneID 36957)?
E2F firefly, rep 1: 69236; Renilla normaliser, rep 1: 3021; Outcome: inactive

With Obp50e (GeneID 36600), how do the results read?
E2F firefly, rep 1: 1.06e5; Renilla normaliser, rep 1: 4606; Outcome: inactive

With Droj2 (GeneID 41646), what does the deposit list?
E2F firefly, rep 1: 67330; Renilla normaliser, rep 1: 3427; Outcome: inactive

What is on record for CG2750 (GeneID 32179)?
E2F firefly, rep 1: 73988; Renilla normaliser, rep 1: 3586; Outcome: inactive

For fz (GeneID 45307), how do the results read?
E2F firefly, rep 1: 1.79e5; Renilla normaliser, rep 1: 9242; Outcome: inactive

Which result is listed for Tis11 (GeneID 32222)?
E2F firefly, rep 1: 5631; Renilla normaliser, rep 1: 624; Outcome: inactive

With CG4477 (GeneID 39058), what was measured?
E2F firefly, rep 1: 66603; Renilla normaliser, rep 1: 404; Outcome: inactive

With CG6034 (GeneID 39974), how do the results read?
E2F firefly, rep 1: 1.71e5; Renilla normaliser, rep 1: 8030; Outcome: inactive

Targets above whose gene name starts with C or c:
CG15484 (GeneID 34682): E2F firefly, rep 1 = 1.03e5; Renilla normaliser, rep 1 = 4438; Outcome = inactive
Ctl1 (GeneID 38523): E2F firefly, rep 1 = 96210; Renilla normaliser, rep 1 = 4350; Outcome = inactive
CG2750 (GeneID 32179): E2F firefly, rep 1 = 73988; Renilla normaliser, rep 1 = 3586; Outcome = inactive
CG4477 (GeneID 39058): E2F firefly, rep 1 = 66603; Renilla normaliser, rep 1 = 404; Outcome = inactive
CG6034 (GeneID 39974): E2F firefly, rep 1 = 1.71e5; Renilla normaliser, rep 1 = 8030; Outcome = inactive

The list goes on:
What is on record for CG14609 (GeneID 40864)?
E2F firefly, rep 1: 1.17e5; Renilla normaliser, rep 1: 7303; Outcome: inactive

For Got2 (GeneID 33373), what does the deposit list?
E2F firefly, rep 1: 88377; Renilla normaliser, rep 1: 3695; Outcome: inactive

For CG7741 (GeneID 36208), how do the results read?
E2F firefly, rep 1: 94368; Renilla normaliser, rep 1: 4153; Outcome: inactive

With mei-38 (GeneID 31104), what does the deposit list?
E2F firefly, rep 1: 1.22e5; Renilla normaliser, rep 1: 5246; Outcome: inactive

With Scp2 (GeneID 42015) #1, how do the results read?
E2F firefly, rep 1: 93319; Renilla normaliser, rep 1: 2268; Outcome: inactive

Which result is listed for Scp2 (GeneID 42015) #2?
E2F firefly, rep 1: 1.11e5; Renilla normaliser, rep 1: 6316; Outcome: inactive

How did the screen score Gr10b (GeneID 32085)?
E2F firefly, rep 1: 1.36e5; Renilla normaliser, rep 1: 7173; Outcome: inactive

What is on record for CG42562 (GeneID 37008)?
E2F firefly, rep 1: 1.35e5; Renilla normaliser, rep 1: 3996; Outcome: inactive

With CG10943 (GeneID 39462), how do the results read?
E2F firefly, rep 1: 1.08e5; Renilla normaliser, rep 1: 3908; Outcome: inactive

With eIF2beta (GeneID 39433), what was measured?
E2F firefly, rep 1: 60213; Renilla normaliser, rep 1: 5810; Outcome: inactive

With t (GeneID 31863), what was measured?
E2F firefly, rep 1: 1.26e5; Renilla normaliser, rep 1: 5277; Outcome: inactive

How did the screen score Rpe (GeneID 35692)?
E2F firefly, rep 1: 3036; Renilla normaliser, rep 1: 177; Outcome: inactive

With udd (GeneID 35781), what does the deposit list?
E2F firefly, rep 1: 1.61e5; Renilla normaliser, rep 1: 5020; Outcome: inactive

For CG13585 (GeneID 37918), how do the results read?
E2F firefly, rep 1: 1.12e5; Renilla normaliser, rep 1: 4508; Outcome: inactive

Which result is listed for E23 (GeneID 43895) #1?
E2F firefly, rep 1: 1.20e5; Renilla normaliser, rep 1: 4213; Outcome: inactive

What did the screen give for E23 (GeneID 43895) #2?
E2F firefly, rep 1: 1.32e5; Renilla normaliser, rep 1: 4985; Outcome: inactive

How did the screen score Mad1 (GeneID 35954)?
E2F firefly, rep 1: 3087; Renilla normaliser, rep 1: 50; Outcome: inactive

With CG30105 (GeneID 246459), what was measured?
E2F firefly, rep 1: 1.33e5; Renilla normaliser, rep 1: 6440; Outcome: inactive
